Source: PubChem BioAssay AID1159594 (NIAID, 2016)
This is a random part of 756 reagents. Over the whole deposit, 130 (17%) are marked active. 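Active calls cover both falls and rises of reporter activity; each row reflects one siRNA, not a gene-level verdict.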 Reagents against one gene are numbered here. Not stated in the record: the amount of reagent.

Assay: 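Mapping how TLR pathway genes contribute to TLR2/6 signalling in macrophage-like cells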
Cells: human THP-1 B5 reporter cells, PMA-differentiated into macrophage-like cells
Reagent: single siRNA against human genes
Timing: 48 to 72 hours after siRNA transfection; ligand exposure 4 hours
Treatment: Pam2CSK4 (TLR2/6 agonist) stimulation for 4 hours before lysis; dose not given
Read-out: 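TNF promoter reporter signal as firefly to renilla luciferase ratio, scaled per plate by median and MAD, given as robust z-score against negative controls, averaged across replicates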
Scale: TNF reporter z-score: higher = stronger TNF promoter reporter activity
Active means: 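Active when the mean z-score across replicates is at or beyond ±1.5 in either direction, matching a depositor grade of 50 or higher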
Meaning of the calls: active = z-score beyond ±1.5 (either direction); inactive = z-score within ±1.5

| Target gene | reagent | TNF reporter z-score, replicate mean | outcome |
| --- | --- | --- | --- |
| MAPK14 (mitogen-activated protein kinase 14) | 1 | -1.87 | active |
| MAPK14 (mitogen-activated protein kinase 14) | 2 | -1.68 | active |
| MAPK14 (mitogen-activated protein kinase 14) | 3 | -1.89 | active |
| MAPK14 (mitogen-activated protein kinase 14) | 4 | -1.2 | inactive |
| MAPK14 (mitogen-activated protein kinase 14) | 5 | -1.12 | inactive |
| MAPK14 (mitogen-activated protein kinase 14) | 6 | -2.28 | active |
| STAT1 (signal transducer and activator of transcription 1) | 1 | 0.284 | inactive |
| STAT1 (signal transducer and activator of transcription 1) | 2 | -0.604 | inactive |
| STAT1 (signal transducer and activator of transcription 1) | 3 | -3 | active |
| STAT1 (signal transducer and activator of transcription 1) | 4 | -0.184 | inactive |
| STAT1 (signal transducer and activator of transcription 1) | 5 | 0.586 | inactive |
| STAT1 (signal transducer and activator of transcription 1) | 6 | 0.437 | inactive |
| PIK3R1 (phosphoinositide-3-kinase regulatory subunit 1) | 1 | -0.817 | inactive |
| PIK3R1 (phosphoinositide-3-kinase regulatory subunit 1) | 2 | 0.00349 | inactive |
| PIK3R1 (phosphoinositide-3-kinase regulatory subunit 1) | 3 | 0.594 | inactive |
| PIK3R1 (phosphoinositide-3-kinase regulatory subunit 1) | 4 | 0.651 | inactive |
| PIK3R1 (phosphoinositide-3-kinase regulatory subunit 1) | 5 | -1.7 | active |
| PIK3R1 (phosphoinositide-3-kinase regulatory subunit 1) | 6 | 0.362 | inactive |
| IRF5 (interferon regulatory factor 5) | 1 | -3.88 | active |
| IRF5 (interferon regulatory factor 5) | 2 | 0.473 | inactive |
| IRF5 (interferon regulatory factor 5) | 3 | -1.68 | active |
| IRF5 (interferon regulatory factor 5) | 4 | 0.0164 | inactive |
| IRF5 (interferon regulatory factor 5) | 5 | -1.09 | inactive |
| IRF5 (interferon regulatory factor 5) | 6 | -1.43 | inactive |
| MAPKAPK2 (MAPK activated protein kinase 2) | 1 | 0.169 | inactive |
| MAPKAPK2 (MAPK activated protein kinase 2) | 2 | -0.431 | inactive |
| MAPKAPK2 (MAPK activated protein kinase 2) | 3 | -0.853 | inactive |
| MAPKAPK2 (MAPK activated protein kinase 2) | 4 | -0.215 | inactive |
| MAPKAPK2 (MAPK activated protein kinase 2) | 5 | 0.65 | inactive |
| MAPKAPK2 (MAPK activated protein kinase 2) | 6 | -1.31 | inactive |
| TOLLIP (toll interacting protein) | 1 | -0.397 | inactive |
| TOLLIP (toll interacting protein) | 2 | -0.408 | inactive |
| TOLLIP (toll interacting protein) | 3 | 0.029 | inactive |
| TOLLIP (toll interacting protein) | 4 | -1.78 | active |
| TOLLIP (toll interacting protein) | 5 | -1.17 | inactive |
| TOLLIP (toll interacting protein) | 6 | 0.124 | inactive |
| MAP2K6 (mitogen-activated protein kinase kinase 6) | 1 | -0.313 | inactive |
| MAP2K6 (mitogen-activated protein kinase kinase 6) | 2 | -0.525 | inactive |
| MAP2K6 (mitogen-activated protein kinase kinase 6) | 3 | 0.454 | inactive |
| MAP2K6 (mitogen-activated protein kinase kinase 6) | 4 | 0.464 | inactive |
| MAP2K6 (mitogen-activated protein kinase kinase 6) | 5 | 0.0382 | inactive |
| MAP2K6 (mitogen-activated protein kinase kinase 6) | 6 | 0.697 | inactive |
| CASP8 (caspase 8) | 1 | 0.15 | inactive |
| CASP8 (caspase 8) | 2 | -0.508 | inactive |
| CASP8 (caspase 8) | 3 | 0.0536 | inactive |
| CASP8 (caspase 8) | 4 | -0.513 | inactive |
| CASP8 (caspase 8) | 5 | 0.259 | inactive |
| CASP8 (caspase 8) | 6 | -0.55 | inactive |

Part of the list above in another layout:
{"Target gene":"MAP2K6 (mitogen-activated protein kinase kinase 6)","reagent":6,"TNF reporter z-score, replicate mean":0.697,"outcome":"inactive"}
{"Target gene":"CASP8 (caspase 8)","reagent":1,"TNF reporter z-score, replicate mean":0.15,"outcome":"inactive"}
{"Target gene":"CASP8 (caspase 8)","reagent":2,"TNF reporter z-score, replicate mean":-0.508,"outcome":"inactive"}
{"Target gene":"CASP8 (caspase 8)","reagent":3,"TNF reporter z-score, replicate mean":0.0536,"outcome":"inactive"}
{"Target gene":"CASP8 (caspase 8)","reagent":4,"TNF reporter z-score, replicate mean":-0.513,"outcome":"inactive"}
{"Target gene":"CASP8 (caspase 8)","reagent":5,"TNF reporter z-score, replicate mean":0.259,"outcome":"inactive"}
{"Target gene":"CASP8 (caspase 8)","reagent":6,"TNF reporter z-score, replicate mean":-0.55,"outcome":"inactive"}
